# According to the supplement of paper PMC8007513:
# The list shows a part of the results. Single values are uncertain, as repeats are few or missing.
# System: Saccharomyces cerevisiae BY4743
# Assay: growth (OD600) relative to untreated control; higher = less growth inhibition
# Conditions: compound concentration: 133 uM; 20 h
# Protocol: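 NMCCC compounds (133 uM, no IPBC) tested alone against Saccharomyces cerevisiae BY4743 in YPD, 96-well plates, starting OD600 ~0.1. Growth was read as OD600 at 20 h and expressed as % of the untreated control. Single pass.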
row,SMILES,growth [%]
1,CC(C)(C)c1cc(N)n(-c2ccc(C(=O)O)cc2)n1,105
2,CCOC(=O)C1(C)\C=C(\NC2=CC=CC(=C2)C)C(=O)N1C3=CC=CC=C3 (stereo not drawn),91.6
3,COC(=O)C(CC(C)C)NC(=O)c1ccc(S(=O)(=O)N2CCc3ccccc3C2)cc1 (stereo not drawn),96.1
4,CS(=O)(=O)NCCc1ccc(C(=O)OCC(=O)N2CCCc3ccccc32)s1,100
5,O=C(NCc1cc(-c2ccccc2)no1)C(=O)Nc1cc(F)cc(F)c1,106
6,C[N]1N=CC(=C1C)N2\N=N/C3=C([N](C)N=C3)C2=O,104
7,CCOC(=O)c1c(-c2ccc(OC)cc2)csc1NC(=O)CN(C)CC(=O)N(C)C,106
8,CC(=O)c1c(C)[nH]c(C(=O)C(C)Oc2ccc(F)c(Cl)c2)c1C (stereo not drawn),109
9,CC(=O)c1c(C)[nH]c(C(=O)COC(=O)c2cccc(OC(F)F)c2)c1C,105
10,O=C(Nc1nccs1)c1cccnc1,100
11,CCN(CC)CCn1c2ccccc2c2nc(C)sc21,71.2
12,CCOC(=O)c1cc(C)n(CC2CCC(C(=O)Nc3ccccc3OCC)CC2)c1C (stereo not drawn),96
13,Cc1cc(C(F)(F)F)c2c(C#N)cn(-c3cnn(C)c3)c2n1,94.2
14,CCSC1(SCC)\N=C(\N)C2(C#N)C(N\C(=C(\C)C12C#N)C)C3=CC=CC=C3 (stereo not drawn),111
15,CCCc1cc(NCCN(C)C)n2nc3nc(C)cc(C)c3c2n1,107
16,CCOC(=O)c1ccc(NC(=O)CSc2nc3[nH]cc(Br)c(C)c-3n2)cc1,87.1
17,COC(=O)c1ccc(CSc2nnc(CNC(=O)c3ccccc3F)o2)o1,97.3
18,Cn1ncc2c(SCCC(=O)Nc3ccccc3F)ncnc21,82
19,CCOC(=O)C1Sc2nnc(C(F)(F)F)n2NC1c1ccccc1 (stereo not drawn),90.3

# An excerpt of these results, with tabs:
row	SMILES	growth [%]
17	COC(=O)c1ccc(CSc2nnc(CNC(=O)c3ccccc3F)o2)o1	97.3
18	Cn1ncc2c(SCCC(=O)Nc3ccccc3F)ncnc21	82

# Following part:

row,SMILES,growth [%]
1,CSc1ncc(Cl)c(C(=O)NC2CC3CCC2(C)C3(C)C)n1 (stereo not drawn),102
2,CCN(CC(=O)Nc1sccc1C#N)Cc1ccc2c(c1)OCO2,97.6
3,CN(Cc1cnn(Cc2ccccc2)c1)C(=O)c1cc(Cl)ccc1Cl,96.4
4,Cn1c(Cc2nnnn2Cc2ccc(Cl)cc2Cl)nnc1SCC(N)=O,101
5,CC(C)c1ccc(C(=O)Cn2cnc(C#N)n2)c(C(C)C)c1,102
6,CCOC(=O)c1cn(Cc2ccccc2)nc1-c1ccccc1OC,87.3
7,CCOC(=O)c1c(NC(=O)c2ccccc2)oc2cccnc12,76.4
8,Cc1ccccc1NS(=O)(=O)c1ccc(C(=O)NN2CCCCC2)cc1,112
9,COc1ccc(NC(=O)c2ccnc(N3CCC(C)CC3)c2)cc1,90.1
10,Cc1cc(C(=O)O)cc(S(=O)(=O)Nc2ccccc2OC(F)F)c1C,102
11,O=C(NCc1ccco1)C1(S(=O)(=O)c2ccccc2)CCCC1,108
12,Cc1ccnc(NC(=O)c2ccc(C)cc2Cl)c1,95.7
13,CCOC(=O)c1c(C)[nH]c(C)c1C(=O)CSc1nnc2nc(C)cc(C)n12,86.7
14,Cc1cc(-c2csc(N)n2)c(C)n1NC(=O)c1ccccc1,46.7
15,COc1ccccc1CCNC(=O)CSc1nnnn1Cc1ccccc1,112
16,CC1CCN(C(=O)C(NC(=O)NC(C)c2cccs2)c2ccccc2)CC1 (stereo not drawn),110
17,COc1ccc(Cl)cc1-c1n[nH]c(SCC(=O)N(CCC#N)c2ccccc2)n1,102
18,COC(=O)\C1=C\N(CC2=CC=CS2)\C=C(/C1C3=CC=CC=C3OC(C)C)C(=O)OC,112
19,Cc1c(C(=O)Nc2ccc(C(=O)O)cc2)oc2c1C(=O)CC(C)(C)C2,85.7
